{"source": "PubChem BioAssay AID493014", "about": "(National Center for Advancing Translational Sciences (NCATS), 2011)", "note": "The whole screen tested about 340,000 compounds, of which about 170 (0.05%) were called active. Inconclusive means that the source gave no clear call. Such entries were picked first, then a sample of the others. Calls follow the shape of the dose curve; as a rule, active = well fitted inhibition curve with a large enough effect in the signal ratio, with a control signal flat (not every such curve was filed as active); inconclusive = small, poorly fitted or top-dose-only effect, or effect the other way, or a change in a side signal; inactive = flat fitted curve, though single readings scatter; the % refers to the signal ratio. Potencies of inconclusive entries are doubtful fits and often do not repeat. Potency is read from the fitted curve at half-maximal effect."}
{"experiment": "qHTS Assay to Find Inhibitors of Chronic Active B-Cell Receptor Signaling;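 as to activity change, negative = inhibition: plate controls were basal doxycycline-induced cells for no effect and cells given 10 µM MG132 for full effect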", "conditions": "ABC-DLBCL IkBa-CBG/CBR reporter, luminescence ratio (green luciferase fused to IkBa over red control in TMD8 lymphoma cells), 4 h; activity change, negative = inhibition: at 46.1 µM (top of the series) unless noted", "method_in_brief": "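Compounds up to 46 uM were incubated four hours with TMD8 cells whose green CBG68 luciferase is fused to IkappaBalpha; red CBR luminescence normalised the signal, and concentration-effect curves were fitted to fusion, red and ratio data.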"}
{"smiles": "COc1ccccc1Oc1ccc(NC(=O)c2ccccc2C)cc1", "activity change, negative = inhibition": "inconclusive: -20.6%"}
{"smiles": "Cn1c(=O)c2c(nc(Sc3ncnn3CC(=O)N3CCOCC3)n2C)n(C)c1=O", "activity change, negative = inhibition": "inactive: 17.4%"}
{"smiles": "O=C(CCO)c1ccc(O)cc1", "activity change, negative = inhibition": "inactive: -14%"}
{"smiles": "O=Cc1ccc(OCC(=O)NC(=O)NC2CCCCC2)cc1", "activity change, negative = inhibition": "inactive: 7.39%"}
{"smiles": "CCOC(=O)C(NC(=O)c1ccc(OC)cc1)(N1CCCC1=O)C(F)(F)F", "note": "(centres undefined)", "activity change, negative = inhibition": "inactive: -0.747%"}
{"smiles": "CCN(CC)S(=O)(=O)c1ccc(C)c(NC(=S)NC2CCCCC2)c1", "activity change, negative = inhibition": "inactive: -1.66%"}
{"smiles": "CC(=O)n1cc([C@H]2C=C(C(=O)NCc3ccccc3)O[C@@H](OCc3ccc(CO)cc3)C2)c2ccccc21", "activity change, negative = inhibition": "inactive: 1.34%"}
{"smiles": "COc1ccccc1-c1cc(C(=O)NCc2ccccc2)no1", "Potency": "inconclusive: 5.62 µM [rising, single point]"}
{"smiles": "CC(=O)N/N=C/c1ccccc1OCCOc1cccc(C)c1", "activity change, negative = inhibition": "inconclusive: 5.72%"}
{"smiles": "O=C(O)Cc1sc(N/N=C\\c2ccncc2)nc1-c1ccccc1", "Potency": "inconclusive: 22.4 µM [falling, single point]"}
{"smiles": "O=C(CC1S/C(=N/N=C/c2cccnc2)NC1=O)Nc1ccccc1", "note": "(centres undefined)", "Potency": "inconclusive: 14.1 µM [falling, partial curve]"}
{"smiles": "CC(C)C[C@H](NC(=O)Nc1ccc(Oc2ccccc2)cc1)C(=O)O", "activity change, negative = inhibition": "inactive: -0.486%"}
{"smiles": "Cc1nn(-c2ccccc2)c2nc3c(cc12)C(=O)CCC3", "activity change, negative = inhibition": "inconclusive: 2.91%"}
{"smiles": "COC(=O)N1CCN(c2ccc(Cl)c(Cl)c2)CC1", "activity change, negative = inhibition": "inconclusive: 0.381%"}
{"smiles": "COc1cc(OC)cc(-c2cn[nH]c2N)c1", "Potency": "inconclusive: 5.62 µM [falling, full curve, poor fit]"}
{"smiles": "COc1cccc(C=Nc2ccc3c(c2)CCC3)c1O", "activity change, negative = inhibition": "inconclusive: -18.9%"}
{"smiles": "CCOC(=O)c1[nH]cnc1C(=O)Nc1ccc(F)cc1", "activity change, negative = inhibition": "inconclusive: -6.94%"}
{"smiles": "C/C(=N\\NC(=O)COc1ccccc1-c1ccccc1)c1ccc(O)cc1O", "Potency": "inconclusive: 28.2 µM [falling, partial curve, poor fit]"}
{"smiles": "COc1ccc(-c2nsc3c(N4CCCCC4)ncnc23)cc1", "activity change, negative = inhibition": "inconclusive: 1.69%"}
{"smiles": "CCOC(=O)C(C)n1cnc2c(nnn2Cc2ccc(C)cc2)c1=O", "note": "(centres undefined)", "activity change, negative = inhibition": "inconclusive: 9.65%"}
{"smiles": "CC(C)(C)C(=O)Nc1cccc(-c2nc3ccccc3[nH]2)c1", "activity change, negative = inhibition": "inconclusive: 11.1%"}
{"smiles": "CCCCN(C)CCNC(=O)c1nn(-c2ccc(OC)cc2)c(=O)c2c1c1ccccc1n2C", "activity change, negative = inhibition": "inactive: 5.57%"}
{"smiles": "COc1ccc(Nc2ncnc3sc(-c4ccccc4)cc23)cc1OC", "activity change, negative = inhibition": "inconclusive: -0.386%"}
{"smiles": "O=C(Cc1ccc(S(=O)(=O)N2CCCC2)s1)NC1CCCCCC1", "activity change, negative = inhibition": "inconclusive: -11%"}
{"smiles": "COc1ccc2[nH]cc(/C=C/c3cc[n+](C)cc3)c2c1", "activity change, negative = inhibition": "inconclusive: 8.75%"}
{"smiles": "N#C/C(=C(/O)CSc1n[nH]c(N)n1)c1nc2ccccc2[nH]1", "activity change, negative = inhibition": "inactive: -5.39%"}
{"smiles": "Cc1sc2ncnc(N3CCC(C(=O)N(C)CC(=O)Nc4ccc(Cl)c(C(F)(F)F)c4)CC3)c2c1C", "activity change, negative = inhibition": "inconclusive: -8.02%"}
{"smiles": "CCOC(=O)C(=Cc1ccc(-n2ccnc2)cc1)C(=O)OCC", "activity change, negative = inhibition": "inconclusive: 25%"}
{"smiles": "COc1ccccc1NS(=O)(=O)c1cccc(C(=O)OCC(=O)Nc2cc(C)on2)c1", "activity change, negative = inhibition": "inconclusive: -0.97%"}
{"smiles": "Cc1cc(S(=O)(=O)NC[C@H]2O[C@@H](n3cnc4c(N)ncnc43)[C@H](O)[C@@H]2O)c(C)s1", "activity change, negative = inhibition": "inconclusive: -3.26%"}
{"smiles": "Cc1nn(-c2ccccc2)c2c1C(c1ccco1)C(C#N)=C(N)O2", "note": "(centres undefined)", "activity change, negative = inhibition": "inconclusive: 1.77%"}
{"smiles": "O=C(CCCn1c(=S)[nH]c2ccsc2c1=O)NC1CCCCC1", "activity change, negative = inhibition": "inactive: 0.74%"}
{"smiles": "Cc1nc(-c2coc3cc(O)c(C)cc3c2=O)cs1", "activity change, negative = inhibition": "inconclusive: 10.2%"}
{"smiles": "CCOC(=O)c1sc(=NC(=O)COc2ccc(Cl)cc2)n(C)c1C", "Potency": "inconclusive: 35.5 µM [falling, partial curve, poor fit]"}
{"smiles": "CCOc1ccc(Nc2cc(C)nc3nc(C)nn23)cc1", "activity change, negative = inhibition": "inconclusive: -4.04%"}
{"smiles": "Cc1ccc(/C=N/Nc2ccc(Cl)nn2)cc1", "activity change, negative = inhibition": "inconclusive: 14.3%"}
{"smiles": "Cc1cccnc1NC(=O)c1ccc(S(=O)(=O)N2CCCCCC2)cc1", "activity change, negative = inhibition": "inconclusive: 15.7%"}
{"smiles": "COc1ccc2cc(C3CC(c4cccs4)=NN3S(C)(=O)=O)c(Cl)nc2c1", "note": "(centres undefined)", "Potency": "inconclusive: 18.4 µM [cytotoxic, single point]"}
{"smiles": "CCc1ccc(C(C(=O)NC2CCCC2)N(C(=O)/C=C/C(=O)Nc2cc(C)on2)c2ccccc2C)cc1", "note": "(centres undefined)", "activity change, negative = inhibition": "inactive: -2.99%"}
{"smiles": "CC(C)CC(CC(C)C)=NNC(=O)c1ccc2c(c1)OCO2", "Potency": "inconclusive: 25.1 µM [falling, partial curve]"}
{"smiles": "COc1ccc(OC)c(-c2csc(NC(=O)Cc3ccc(F)cc3)n2)c1", "activity change, negative = inhibition": "inconclusive: -1.03%"}
{"smiles": "CCc1noc(C)c1C(=O)Nc1cccc(S(=O)(=O)N(C)c2ccccc2)c1", "activity change, negative = inhibition": "inconclusive: -17.1%"}
{"smiles": "O=C(c1ccc(Br)o1)N1CC=C(c2ccccc2)CC1", "activity change, negative = inhibition": "inconclusive: 4.48%"}
{"smiles": "CCN(CC(=O)Nc1ccc2c(c1)OCCO2)c1nc(-c2cccnc2)nc2ccccc12", "activity change, negative = inhibition": "inactive: -7.02%"}
{"smiles": "Fc1ccc2cnc(-c3ccccc3)c(-c3ccc(C(F)(F)F)cc3)c2c1", "activity change, negative = inhibition": "inactive: 0.888%"}
{"smiles": "Nc1ccccc1N=c1ssnc1Cl", "activity change, negative = inhibition": "inconclusive: -5.23%"}
{"smiles": "O=C(COC(=O)CCc1ccc(S(=O)(=O)N2CCOCC2)cc1)NCc1ccc(Cl)cc1", "activity change, negative = inhibition": "inconclusive: 4.97%"}
{"smiles": "CCOC(=O)c1c(CSc2cccs2)n(C)c2cc(Br)c(O)c(CN(C)C)c12", "activity change, negative = inhibition": "inconclusive: -21.8%"}
{"smiles": "C(=N\\Nc1nc2ccccc2[nH]1)/c1ccccc1", "Potency": "inconclusive: 15.8 µM [falling, single point]"}
{"smiles": "O=C(Nc1sc2c(c1C(=O)NCCCO)CCCC2)c1ccccc1", "Potency": "inconclusive: 35.5 µM [falling, partial curve]"}
{"smiles": "Cc1cc(=O)oc2cc(NC(=O)C(C)Oc3cccc(Cl)c3)ccc12", "note": "(centres undefined)", "activity change, negative = inhibition": "inconclusive: 0.739%"}
{"smiles": "CCN(CC)S(=O)(=O)c1ccc(OC)c(NC(=O)Cc2cccs2)c1", "activity change, negative = inhibition": "inconclusive: -3.03%"}
{"smiles": "N=c1oc2ccc(Br)cc2cc1C(=O)NCc1ccc(F)cc1", "activity change, negative = inhibition": "inactive: -4.9%"}
{"smiles": "CCOc1ccc(-c2cc(CCCC(=O)N3CCN(c4ccc(OC)cc4)CC3)no2)cc1", "Potency": "inconclusive: 7.31 µM [falling, partial curve]"}
